The campaign covered roughly 580,000 compounds. About 6,100 (1.1%) were called active. The inconclusive results got no clear call from the source; some entries with a clear call stand among them for comparison. Calls come from the whole dose curve; as a rule, active = well fitted inhibition curve with a large enough effect; inconclusive = small, poorly fitted or top-dose-only effect, or another doubt; inactive = no such curve, though single readings can be large or run the other way. Potencies of inconclusive entries are doubtful fits and often do not repeat.
molecular target: Polyunsaturated fatty acid lipoxygenase ALOX12 (Homo sapiens) (UniProt P18054); assay: Primary qHTS assay for inhibitors of human arachidonate 12S-lipoxygenase (ALOX12): Round 2; settings: purified 12hLO, xylenol orange hydroperoxide absorbance; activity change, negative = inhibition: at 108 µM (top of the series) unless noted
Procedure, shortened: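 Purified human 12hLO (150 nM final) in 25 mM Hepes, 0.01% Triton X-100, pH 7.0 was preincubated 15 min at room temperature with compound. Then 40 uM arachidonic acid was added, 30 min. Hydroperoxide was read by Fe-XO absorbance ratio 573/405 nm.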
% is set by controls: 0 for no effect and ±100 for the full control effect; potency is the fitted concentration of half-maximal effect.

The chains behind the UniProt entries cited, without tags or fusion partners. Where a name states a change or a piece, a line headed by the entry shows the natural chain unless it says otherwise.
UniProt P18054: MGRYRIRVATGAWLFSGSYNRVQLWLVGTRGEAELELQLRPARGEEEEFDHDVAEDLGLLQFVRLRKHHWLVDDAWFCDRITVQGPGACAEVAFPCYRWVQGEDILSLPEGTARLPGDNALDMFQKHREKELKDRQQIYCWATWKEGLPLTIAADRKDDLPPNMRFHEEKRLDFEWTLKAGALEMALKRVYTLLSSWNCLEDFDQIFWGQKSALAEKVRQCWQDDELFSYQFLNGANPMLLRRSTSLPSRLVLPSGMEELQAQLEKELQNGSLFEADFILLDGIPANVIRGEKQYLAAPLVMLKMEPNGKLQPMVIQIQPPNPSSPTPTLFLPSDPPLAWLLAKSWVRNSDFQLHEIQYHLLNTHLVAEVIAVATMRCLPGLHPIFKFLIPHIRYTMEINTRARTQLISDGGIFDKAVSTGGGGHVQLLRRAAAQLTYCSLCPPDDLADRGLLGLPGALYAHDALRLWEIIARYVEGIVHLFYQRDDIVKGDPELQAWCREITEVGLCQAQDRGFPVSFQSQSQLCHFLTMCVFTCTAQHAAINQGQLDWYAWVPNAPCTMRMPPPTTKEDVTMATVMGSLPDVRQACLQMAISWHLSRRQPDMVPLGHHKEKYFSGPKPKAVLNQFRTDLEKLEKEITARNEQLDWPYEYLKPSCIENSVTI

Row | Compound | activity change, negative = inhibition | Potency
1 | Cc1cc(C)n(-c2nc(C)nc(N)n2)n1 | inactive: -29.6% | 
2 | O=c1cc(COc2ccc(Cl)cc2Cl)nc2scc(-c3ccccc3)n12 |  | inconclusive: 56.2 µM [inhibitor, partial curve, poor fit]
3 | CCc1cccc(C)c1NC(=O)c1nc2ccccc2nc1N1CCCC1 | inactive: -28% | 
4 | CN1NC2(CCCCC2)N(c2ccccc2)C1=S |  | inconclusive: 35.5 µM [inhibitor, partial curve, poor fit]
5 | c1ccc(COc2cccc3[nH]ccc23)cc1 |  | inconclusive: 112 µM [inhibitor, single point]
6 | O=C(Nc1cccnc1)Nc1cccc(F)c1 | inactive: 10.7% | 
7 | COc1ccc(O)c(/C=N/N2CCCCC2)c1 |  | inconclusive: 112 µM [inhibitor, single point]
8 | Cc1cc(N2C(=O)c3ccc(C(=O)NCc4ccccc4)cc3C2=O)no1 |  | inconclusive: 112 µM [inhibitor, partial curve, poor fit]
9 | COc1cccc(-c2cc3c(=O)n(CC(O)c4cccc(C#N)c4)ccn3n2)c1 (stereo not drawn) | inactive: 9.92% | 
10 | Cc1cc(C)c(OCCCCN2CCNCC2)c(C)c1 |  | inconclusive: 35.5 µM [inhibitor, partial curve, poor fit]
11 | C[C@@H]1CN(C(=O)c2cccc(C#N)c2)CC[C@@]1(O)C1CCOCC1 | inactive: -2.46% | 
12 | O=c1nc(Nc2ccc(Br)cc2)sc2ccc([N+](=O)[O-])cc12 |  | inconclusive: 70.8 µM [inhibitor, partial curve, poor fit]
13 | Cc1ccc(C(=O)/C=C/c2cc3ccccc3nc2N2CCOCC2)cc1 |  | inconclusive: 39.8 µM [inhibitor, partial curve, poor fit]
14 | Cc1ccc(NC(=O)O/N=C2\CCCCC2c2ccc([N+](=O)[O-])cc2[N+](=O)[O-])cc1 (stereo not drawn) |  | inconclusive: 50.1 µM [inhibitor, partial curve, poor fit]
15 | Cc1nnsc1C(=O)N(Cc1ccccc1)C(C)C |  | inconclusive: 112 µM [inhibitor, partial curve, poor fit]
16 | O=C(COC(=O)c1cc([N+](=O)[O-])ccc1N1CCOCC1)Nc1ccc(Cl)cc1 |  | inconclusive: 44.7 µM [inhibitor, partial curve, poor fit]
17 | CCOc1ccc(C2C(C#N)=C(N)SC(N)=C2C#N)c(OCC)c1 |  | inconclusive: 5.62 µM [inhibitor, partial curve, poor fit]
18 | COc1ccccc1N1CCN(C(=O)COc2ccc(C)cc2Br)CC1 |  | inconclusive: 44.7 µM [inhibitor, partial curve, poor fit]
19 | Cc1ccc(Cl)cc1NC(=O)c1n[nH]c(=O)c2ccccc12 |  | inconclusive: 112 µM [inhibitor, single point]
20 | Cc1ccc(NC(=O)C(=O)NCCN2CCN(C(=O)c3ccc(C(C)(C)C)cc3)CC2)cc1 | inactive: 9.87% | 
21 | O=C(Cc1csc(-c2cccs2)n1)NCc1ccc(F)cc1 |  | inconclusive: 39.8 µM [inhibitor, partial curve, poor fit]

Part of the list above in order of count of non-hydrogen atoms, high to low:
Row | Compound | activity change, negative = inhibition | Potency
8 | Cc1cc(N2C(=O)c3ccc(C(=O)NCc4ccccc4)cc3C2=O)no1 |  | inconclusive: 112 µM [inhibitor, partial curve, poor fit]
15 | Cc1nnsc1C(=O)N(Cc1ccccc1)C(C)C |  | inconclusive: 112 µM [inhibitor, partial curve, poor fit]
4 | CN1NC2(CCCCC2)N(c2ccccc2)C1=S |  | inconclusive: 35.5 µM [inhibitor, partial curve, poor fit]
5 | c1ccc(COc2cccc3[nH]ccc23)cc1 |  | inconclusive: 112 µM [inhibitor, single point]

More results

Row | Compound | activity change, negative = inhibition | Potency
22 | COc1ccc2c(c1)cc(C(=O)NCCC(=O)Nc1ccc3c(c1)OCCO3)n2C | inactive: -0.0023% | 
23 | CC1=C(C)CC(C(=O)N2CCN(CCc3ccccc3)CC2)C(C(=O)O)C1 (stereo not drawn) |  | inconclusive: 50.1 µM [inhibitor, partial curve, poor fit]
24 | COc1ccc(N(Cc2cccs2)C(=O)c2ccco2)cc1 |  | inconclusive: 112 µM [inhibitor, partial curve, poor fit]
25 | COc1ccc(S(=O)(=O)N(C)C[C@H]2Oc3ccc(NC(=O)c4ccncc4)cc3C(=O)N([C@H](C)CO)C[C@@H]2C)cc1 |  | inconclusive: 56.2 µM [inhibitor, partial curve, poor fit]
26 | C=CC1=C(C)C2=NC1=CC1=NC(=CC3=NC(=CC4=NC(=C2)C(C)=C4CCC(=O)O)C(CCC(=O)O)=C3C)C(C=C)=C1C.[Zn] |  | inconclusive: 1.58 µM [inhibitor, full curve, poor fit]
27 | Cc1ccc(S(=O)(=O)N2CCN(Cc3csc(C)n3)CC2)c(Br)c1 |  | inconclusive: 79.4 µM [inhibitor, partial curve, poor fit]
28 | CCCCOc1ccc(C(NC(=O)OCC)NC(=O)OCC)cc1 | inactive: -12.9% | 
29 | c1csc(C2NCCc3sccc32)c1 (stereo not drawn) |  | inconclusive: 35.5 µM [inhibitor, single point]
30 | Cn1c(SCC(=O)NC(=O)Cc2ccccc2)nnc1-c1ccc(F)cc1 |  | inconclusive: 141 µM [inhibitor, partial curve, poor fit]
31 | CCOc1cc(Cl)c(S(=O)(=O)NCc2cccnc2)cc1Cl |  | inconclusive: 63.1 µM [inhibitor, partial curve, poor fit]
32 | CN1CCCC1c1nc(C2CN(C(=O)C3CC3)C2)no1 (stereo not drawn) | inactive: 37.1% | 
33 | N/C(CSc1ccc(Cl)cc1)=N\NC(=O)c1ccncc1 |  | inconclusive: 126 µM [inhibitor, single point]
34 | COc1cc(NC(=S)NCc2ccc(S(N)(=O)=O)cc2)cc(OC)c1 |  | inconclusive: 89.1 µM [inhibitor, partial curve, poor fit]
35 | COc1ccc2nc(SCC(=O)N3CCN(S(=O)(=O)c4ccc(C)cc4)C3)[nH]c2c1 | inactive: -7.95% | 
36 | CCOc1ccccc1NC(=O)CCNC(=O)N1CC(=O)Nc2ccccc21 |  | inconclusive: 100 µM [inhibitor, single point]
37 | CN(C)c1ccc(-c2nc3cc(N)ccc3o2)cc1 |  | inconclusive: 39.8 µM [inhibitor, partial curve, poor fit]
38 | CC(C)c1ccc(S(=O)(=O)c2nnn3c2nc(N2CCN(C)CC2)c2sccc23)cc1 |  | inconclusive: 112 µM [inhibitor, partial curve, poor fit]
39 | C[C@@H]1O[C@@H](O[C@H]2[C@H](O)[C@@H](O)[C@H](Oc3c(-c4ccc(O)c(O)c4)oc4cc(O)cc(O)c4c3=O)O[C@@H]2CO)[C@H](O)[C@H](O)[C@H]1O |  | inconclusive: 7.08 µM [inhibitor, full curve, poor fit]
40 | CN(C)C(=O)c1ccc(-c2ccc3ncnc(N(C)C)c3c2)cc1 |  | inconclusive: 8.91 µM [inhibitor, full curve, poor fit]
41 | Cc1cc(Br)ccc1NC(=O)CN(C)C(=O)c1cc([N+](=O)[O-])ccc1N1CCOCC1 |  | inconclusive: 39.8 µM [inhibitor, partial curve, poor fit]
42 | Cc1c(C(=O)NCc2cccnc2)oc2ccccc12 |  | inconclusive: 70.8 µM [inhibitor, partial curve, poor fit]

Row | Compound | activity change, negative = inhibition | Potency
43 | COc1cccc(C(=O)N2CCN(Cc3cc(=O)oc4ccc(OC)cc34)CC2)c1 |  | inconclusive: 31.6 µM [inhibitor, partial curve, poor fit]
44 | O=C(N[C@H]1CCOC[C@H]1C1CCOCC1)c1ccc2c(c1)ncn2CCO | inactive: 5.71% | 
45 | COc1ccc(-c2csc3ncnc(Nc4cc(Cl)ccc4OC)c23)cc1 | inactive: 23.1% | 
46 | Cc1nc2ccc(NC(=O)N(C)c3ccccc3)cc2s1 | inactive: -14.7% | 
47 | CC(=C/c1ccccc1)/C=N/N1CCN(Cc2ccc(C)cc2)CC1 | inactive: -7% | 
48 | Cn1ccc2c(-c3cncc4ccccc34)cc3c(c21)C1CCC3C1 (stereo not drawn) | inactive: -9.34% | 
49 | CCc1cccc(NC(=O)Cn2c(-c3cccc(Cl)c3)nc(C)c(CCO)c2=O)c1 |  | inconclusive: 15.8 µM [inhibitor, partial curve, poor fit]
50 | Brc1ccc(-c2nn3c(Cc4ccccc4)nnc3s2)o1 |  | inconclusive: 50.1 µM [inhibitor, partial curve, poor fit]
51 | CC(=O)Nc1ccc(S(=O)(=O)NC[C@@H]2C=C(C)[C@H](CC(=O)O)C[C@H]2C(C)C)cc1 | inactive: -5.29% [at 176 µM] | 
52 | COc1ccc(C2/C=C\CC(OCc3ccccc3)CC(=O)N2Cc2cccc(F)c2)cc1 (stereo not drawn) |  | inconclusive: 112 µM [inhibitor, single point]
53 | COC(=O)C(C)N1C(=O)S/C(=C/c2cccn2C)C1=O (stereo not drawn) |  | inconclusive: 44.7 µM [inhibitor, partial curve, poor fit]
54 | COc1ccc(C(CC(=O)N2CCN(C)CC2)c2ccccc2)cc1 (stereo not drawn) |  | inconclusive: 100 µM [inhibitor, partial curve, poor fit]
55 | CCc1cc2c(NCCN3CCCCC3)ncnc2s1 |  | inconclusive: 31.6 µM [inhibitor, single point]
56 | C=CCOC(=O)Nc1nc2c(s1)C[C@@H]1[C@](C)(CO)[C@H](O)CC[C@@]1(C)[C@@H]2CC(=O)N1CCCCC1 |  | inconclusive: 63.1 µM [inhibitor, partial curve, poor fit]
57 | COc1ccc(CNC(=O)C[C@H]2C[C@H](C(=O)N3CCCCC3)[C@@]3(C)c4[nH]c5cc(-c6ccco6)ccc5c4CCN3C2=O)cc1OC | inactive: -8.97% | 
58 | O=C(c1ccccc1)C(CCC(CN1CCOCC1)C(=O)c1ccccc1)CN1CCOCC1 (stereo not drawn) |  | inconclusive: 44.7 µM [inhibitor, partial curve, poor fit]
59 | C=CCn1c(SCc2c(C)noc2C)nc2sc3c(c2c1=O)CCCCC3 | inactive: 0% | 
60 | CCOP(=O)(OCC)c1nc(-c2ccc(Cl)cc2)oc1NCc1ccccc1 |  | inconclusive: 79.4 µM [inhibitor, single point]
61 | CCCCOc1ccc(C(=O)N/C(=C/C=C/c2ccccc2)C(=O)NC)cc1 | inactive: -16.6% | 
62 | CN(C)c1ccc(CN2CCC3(C2)C(=O)N(Cc2ccccc2)c2ccccc23)cc1 (stereo not drawn) |  | inconclusive: 31.6 µM [inhibitor, partial curve]
63 | CC1(C(=O)NS(=O)(=O)c2ccc(Br)cc2)CCN1C(=O)C1CCCCC1 (stereo not drawn) |  | inconclusive: 63.1 µM [inhibitor, partial curve, poor fit]
